{"source": "paper PMC8028089", "key": {"[1]": {"biological_target": "T1, MAP17 (human (endogenous in SMMC-7721 and HCC-LM3)) (UniProt Q13113)", "T1 sequence": "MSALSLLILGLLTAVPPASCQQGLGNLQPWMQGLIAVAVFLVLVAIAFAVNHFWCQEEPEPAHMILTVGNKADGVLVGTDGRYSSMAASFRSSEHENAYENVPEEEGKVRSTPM", "test": "proximity ligation; SMMC-7721 and HCC-LM3 cells fixed with 4% paraformaldehyde, permeabilised with 0.1% Triton-X; mouse anti-PDZK1 and rabbit anti-MAP17 primary antibodies; foci seen by confocal microscopy"}, "[2]": {"biological_target": "T1, MAP17 (human (endogenous in SMMC-7721 and HCC-LM3))", "test": "co-IP; supernatants pre-incubated with protein A/G PLUS agarose, then 2 ug MAP17 antibodies or control IgG overnight at 4 °C; protein A/G agarose; western blotting"}}, "note": "Results are given in words; binding and its absence hold for the method and conditions named. Binding seen in cells or lysates may run through a third protein. Some entries that bind do so weakly or less than the wild type.", "data": [{"binder": "PDZK1 (protein, UniProt Q5T2W1 1-519) MTSTFNPRECKLSKQEGQNYGFFLRIEKDTEGHLVRVVEKCSPAEKAGLQDGDRVLRINGVFVDKEEHMQVVDLVRKSGNSVTLLVLDGDSYEKAVKTRVDLKELGQSQKEQGLSDNILSPVMNGGVQTWTQPRLCYLVKEGGSYGFSLKTVQGKKGVYMTDITPQGVAMRAGVLADDHLIEVNGENVEDASHEEVVEKVKKSGSRVMFLLVDKETDKRHVEQKIQFKRETASLKLLPHQPRIVEMKKGSNGYGFYLRAGSEQKGQIIKDIDSGSPAEEAGLKNNDLVVAVNGESVETLDHDSVVEMIRKGGDQTSLLVVDKETDNMYRLAHFSPFLYYQSQELPNGSVKEAPAPTPTSLEVSSPPDTTEEVDHKPKLCRLAKGENGYGFHLNAIRGLPGSFIKEVQKGGPADLAGLEDEDVIIEVNGVNVLDEPYEKVVDRIQSSGKNVTLLVCGKKAYDYFQAKKIPIVSSLADPLDTPPDSKEGIVVESNHDSHMAKERAHSTASHSSSNSEDTEM", "values": [{"measurement": "binding", "setting": "[1]", "value": "binds"}, {"measurement": "binding", "setting": "[2]", "value": "binds"}]}]}
